Data as given in PubChem BioAssay AID652259 (Drosophila RNAi Screening Center, 2013)

Test: 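Knock-downs that push a Wingless-driven reporter up or down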 (primary screen)
Cell system: Drosophila clone 8 imaginal disc epithelial cells
Reagents: long dsRNA against Drosophila genes
Conditions: pathway stimulated by co-transfected Wingless expression plasmid
Measured: 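Dual luciferase reads per well after Wingless plasmid stimulation: reporter firefly light and Renilla control light; activity is firefly divided by Renilla, a ratio not deposited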
Reading the numbers: firefly reporter light: higher = more Wg reporter light, before normalisation; Renilla control light: higher = more transfected or surviving cells
Call rule: 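Strong candidates differ from their plate mean by at least two out of four per-plate statistical tests; weak candidates meet just one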
Meaning of the calls: active = candidate regulator (raises or lowers reporter); inactive = not a candidate
The screen tested about 22,000 reagents; below is a random part of those that have a named target and a result. Over the whole deposit, 233 (1.1%) got an active call. 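Light values are raw, unnormalised plate reads; the ratio scores behind the reporter calls were not deposited.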 Unmarked entries are inactive. A plus sign joins genes that one reagent is predicted to hit. Not stated in the record: the amount of reagent, the time to read-out, the dose of the treatment.

gene | dsRNA | reporter change call, replicate 1 | firefly reporter light, replicate 1 | firefly reporter light, replicate 2 | Renilla control light, replicate 1 | Renilla control light, replicate 2
dia (diaphanous) | DRSC03519 | – | 4005 | 5498 | 881 | 1744
DCTN6-p27 (Dynactin 6, p27 subunit) | DRSC02609 | – | 4440 | 13843 | 1161 | 4448
DCTN6-p27 (Dynactin 6, p27 subunit) | DRSC22810 | – | 4.97e5 | 5.06e5 | 2.21e5 | 2.83e5
CG14062 | DRSC14725 | – | 6712 | – | 2144 | –
Tengl2 (Testis EndoG-Like 2) | DRSC21968 | – | 8.37e5 | 7.98e5 | 3.52e5 | 3.78e5
Tspo + rempA | DRSC00533 | – | 9379 | – | 3580 | –
Cftr (CF transmembrane conductance regulator) | DRSC15872 | – | 3184 | 5730 | 1463 | 1746
CG31231 | DRSC13308 | – | 3104 | – | 1356 | –
CG10494 | DRSC04072 | – | 10706 | – | 2646 | –
CG42827 | DRSC16116 | – | 18642 | – | 16333 | –
St1 (Sulfotransferase 1) | DRSC04504 | – | 20080 | – | 3667 | –
eIF4H1 (eukaryotic translation initiation factor 4H1) | DRSC20276 | – | 18220 | – | 7067 | –
CG7366 | DRSC10825 | – | 5112 | – | 1923 | –
lncRNA:CR43334 (long non-coding RNA:CR43334) | DRSC07894 | – | 4292 | – | 1978 | –
lncRNA:CR43334 (long non-coding RNA:CR43334) | DRSC07895 | – | 1564 | – | 1315 | –
CaBP1 (calcium-binding protein 1) | DRSC01984 | – | 11316 | – | 3286 | –
RN-tre (Related to the N terminus of tre oncogene) | DRSC07521 | – | 12034 | – | 3226 | –
Indy (I'm not dead yet) | DRSC10393 | – | 4161 | – | 1836 | –
CG15514 | DRSC15053 | – | 2508 | 8535 | 972 | 2996
SMC5 (Structural maintenance of chromosomes 5) | DRSC11849 | – | 6432 | – | 3537 | –
CG11668 | DRSC14341 | – | 18407 | – | 4531 | –
CG43345 + CG43346 | DRSC03164 | – | 16169 | – | 3896 | –
Ssl1 (Suppressor of stem-loop mutation) | DRSC11634 | – | 10833 | – | 2386 | –
Jhbp5 (Juvenile hormone binding protein 5) | DRSC14240 | – | 12992 | – | 3644 | –
Hmgs (HMG Coenzyme A synthase) | DRSC06866 | – | 7301 | – | 2448 | –
Vsx1 (Visual system homeobox 1) | DRSC18349 | Wg reporter activity raised (active) | 27092 | – | 12736 | –
Vsx1 (Visual system homeobox 1) | DRSC18350 | – | 38661 | – | 5889 | –
Taf10b + Taf10 | DRSC00793 | – | 5170 | 7143 | 876 | 1520
CG9400 | DRSC20182 | – | 1549 | 4626 | 656 | 2089
Dhc62B (Dynein heavy chain at 62B) | DRSC08655 | – | 5916 | – | 2946 | –
PH4alphaEFB (prolyl-4-hydroxylase-alpha EFB) | DRSC14473 | – | 2755 | 8240 | 1340 | 1228
PH4alphaEFB (prolyl-4-hydroxylase-alpha EFB) | DRSC14950 | – | 4550 | – | 1724 | –
CG10864 | DRSC14273 | – | 14189 | – | 2681 | –
CG10962 | DRSC18421 | – | 2788 | 4589 | 856 | 1578
CG15172 | DRSC02473 | – | 2496 | 6663 | 785 | 3012
CG8915 | DRSC20119 | – | 2916 | 9191 | 1051 | 3377
CG34393 | DRSC00419 | – | 4912 | 10944 | 817 | 1779
CG34393 | DRSC00710 | – | 3222 | 11115 | 793 | 2628
kermit | DRSC06074 | – | 9307 | – | 2064 | –
Grx5 (Glutaredoxin 5) | DRSC19593 | – | 20589 | – | 12434 | –
retinin | DRSC09940 | – | 7186 | – | 2519 | –
sncRNA:430e + His2A:CG33859 + His2A:CG33817 + 37 more | DRSC21264 | – | 20937 | – | 4422 | –
CG32809 | DRSC18507 | – | 3810 | 9420 | 1869 | 4432
CG32809 | DRSC18592 | – | 2500 | 5060 | 1238 | 1713
MED16 (Mediator complex subunit 16) | DRSC04506 | – | 2482 | 4864 | 748 | 3085
Xrcc2 (X-ray repair cross complementing 2) | DRSC19984 | – | 16372 | – | 6333 | –
Grl40a (Gustatory receptor-like 40a) | DRSC03677 | – | 14352 | – | 8966 | –
CG8654 | DRSC07231 | – | 6049 | – | 2345 | –
Prx3 (Peroxiredoxin 3) | DRSC15883 | – | 3593 | 8106 | 1362 | 2493

Part of the list above, showing only “firefly reporter light, replicate 1”:
CG7366 [DRSC10825]: 5112
lncRNA:CR43334 (long non-coding RNA:CR43334) [DRSC07894]: 4292
lncRNA:CR43334 (long non-coding RNA:CR43334) [DRSC07895]: 1564
